PubChem BioAssay AID602196 | INSERM | 2012

- Screen: 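Genes whose knock-down alters cisplatin killing of lung cancer cells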
- Cells: human A549 lung cancer cells
- Reagents: siRNA pair against human genes
- Timing: 48 h transfection before cisplatin; time from cisplatin to read-out not stated
- Challenge: cisplatin at a dose killing half of control-siRNA cells; exact dose and duration not given
- Measured: 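Shift in cisplatin death relative to control siRNA, from -50 (all cells die) to +50 (no cells die); siRNAs harmful on their own scored 0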
- Reading the numbers: two-siRNA summed score (-2 to +2): higher = both siRNAs protect from cisplatin killing; -2 means both sensitise; mean protection from cisplatin (shift in death): higher = protection from cisplatin killing
- Hit rule: 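siRNAs harmful alone (LDH or WST-1) get 0; others get +1 for less and -1 for more cisplatin killing; genes are active when the two siRNAs give the same sign, summing to ±2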
- Calls: active = both siRNAs shift cisplatin killing the same way; inactive = no consistent shift, or siRNA harmful alone
Here is one part, drawn at random, of about 23,000 deposited reagents. 455 of all reagents (2%) count as active. 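Active includes both protection and sensitisation; some change values fall well beyond the stated -50 to +50 range.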 Reagents against one gene are numbered here. Not all columns of the deposit are shown. The record does not give: the amount of reagent.

The first 4 records as a preview:
{"target gene":"RSU1","reagent no.":1,"two-siRNA summed score (-2 to +2)":0,"mean protection from cisplatin (shift in death) (%)":11.2,"Call":"inactive"}
{"target gene":"OR13J1","reagent no.":1,"two-siRNA summed score (-2 to +2)":0,"mean protection from cisplatin (shift in death) (%)":2.1,"Call":"inactive"}
{"target gene":"LOC440384","reagent no.":1,"two-siRNA summed score (-2 to +2)":1,"mean protection from cisplatin (shift in death) (%)":14.3,"Call":"inactive"}
{"target gene":"LOC441969","reagent no.":1,"two-siRNA summed score (-2 to +2)":1,"mean protection from cisplatin (shift in death) (%)":27.7,"Call":"inactive"}

Results, from the first entry:
{"target gene":"RSU1","reagent no.":1,"two-siRNA summed score (-2 to +2)":0,"mean protection from cisplatin (shift in death) (%)":11.2,"Call":"inactive"}
{"target gene":"OR13J1","reagent no.":1,"two-siRNA summed score (-2 to +2)":0,"mean protection from cisplatin (shift in death) (%)":2.1,"Call":"inactive"}
{"target gene":"LOC440384","reagent no.":1,"two-siRNA summed score (-2 to +2)":1,"mean protection from cisplatin (shift in death) (%)":14.3,"Call":"inactive"}
{"target gene":"LOC441969","reagent no.":1,"two-siRNA summed score (-2 to +2)":1,"mean protection from cisplatin (shift in death) (%)":27.7,"Call":"inactive"}
{"target gene":"LOC253724","reagent no.":1,"two-siRNA summed score (-2 to +2)":0,"mean protection from cisplatin (shift in death) (%)":3.8,"Call":"inactive"}
{"target gene":"ATXN3","reagent no.":1,"two-siRNA summed score (-2 to +2)":0,"mean protection from cisplatin (shift in death) (%)":3.6,"Call":"inactive"}
{"target gene":"ZNF761","reagent no.":1,"two-siRNA summed score (-2 to +2)":0,"mean protection from cisplatin (shift in death) (%)":7.4,"Call":"inactive"}
{"target gene":"TMEM186","reagent no.":1,"two-siRNA summed score (-2 to +2)":0,"mean protection from cisplatin (shift in death) (%)":-0.6,"Call":"inactive"}
{"target gene":"TRPV3","reagent no.":1,"two-siRNA summed score (-2 to +2)":1,"mean protection from cisplatin (shift in death) (%)":-2.6,"Call":"inactive"}
{"target gene":"LOC388107","reagent no.":1,"two-siRNA summed score (-2 to +2)":0,"mean protection from cisplatin (shift in death) (%)":9.9,"Call":"inactive"}
{"target gene":"ATG101","reagent no.":1,"two-siRNA summed score (-2 to +2)":-1,"mean protection from cisplatin (shift in death) (%)":-13.9,"Call":"inactive"}
{"target gene":"PIAS2","reagent no.":1,"two-siRNA summed score (-2 to +2)":0,"mean protection from cisplatin (shift in death) (%)":4.3,"Call":"inactive"}
{"target gene":"CCDC6","reagent no.":1,"two-siRNA summed score (-2 to +2)":0,"mean protection from cisplatin (shift in death) (%)":8.1,"Call":"inactive"}
{"target gene":"LOC439970","reagent no.":1,"two-siRNA summed score (-2 to +2)":0,"mean protection from cisplatin (shift in death) (%)":-8.8,"Call":"inactive"}
{"target gene":"RERE","reagent no.":1,"two-siRNA summed score (-2 to +2)":1,"mean protection from cisplatin (shift in death) (%)":9,"Call":"inactive"}
{"target gene":"OR4A5","reagent no.":1,"two-siRNA summed score (-2 to +2)":0,"mean protection from cisplatin (shift in death) (%)":-2.1,"Call":"inactive"}
{"target gene":"SNX5","reagent no.":1,"two-siRNA summed score (-2 to +2)":-1,"mean protection from cisplatin (shift in death) (%)":-10.6,"Call":"inactive"}
{"target gene":"COLEC10","reagent no.":1,"two-siRNA summed score (-2 to +2)":0,"mean protection from cisplatin (shift in death) (%)":0.3,"Call":"inactive"}
{"target gene":"ICMT","reagent no.":1,"two-siRNA summed score (-2 to +2)":0,"mean protection from cisplatin (shift in death) (%)":0.7,"Call":"inactive"}
{"target gene":"CTDSPL2","reagent no.":1,"two-siRNA summed score (-2 to +2)":0,"mean protection from cisplatin (shift in death) (%)":-6.3,"Call":"inactive"}
{"target gene":"FOXD4L3","reagent no.":1,"two-siRNA summed score (-2 to +2)":0,"mean protection from cisplatin (shift in death) (%)":7.1,"Call":"inactive"}
{"target gene":"FOXD4L3","reagent no.":2,"two-siRNA summed score (-2 to +2)":0,"mean protection from cisplatin (shift in death) (%)":11.7,"Call":"inactive"}
{"target gene":"LOC441991","reagent no.":1,"two-siRNA summed score (-2 to +2)":0,"mean protection from cisplatin (shift in death) (%)":12.1,"Call":"inactive"}
{"target gene":"CHCHD1","reagent no.":1,"two-siRNA summed score (-2 to +2)":0,"mean protection from cisplatin (shift in death) (%)":3.9,"Call":"inactive"}
{"target gene":"SERPINC1","reagent no.":1,"two-siRNA summed score (-2 to +2)":0,"mean protection from cisplatin (shift in death) (%)":19.1,"Call":"inactive"}
{"target gene":"LOC158830","reagent no.":1,"two-siRNA summed score (-2 to +2)":0,"mean protection from cisplatin (shift in death) (%)":16.6,"Call":"inactive"}
{"target gene":"NCBP2","reagent no.":1,"two-siRNA summed score (-2 to +2)":0,"mean protection from cisplatin (shift in death) (%)":-10.3,"Call":"inactive"}
{"target gene":"LOC440036","reagent no.":1,"two-siRNA summed score (-2 to +2)":0,"mean protection from cisplatin (shift in death) (%)":4.7,"Call":"inactive"}
{"target gene":"EEPD1","reagent no.":1,"two-siRNA summed score (-2 to +2)":0,"mean protection from cisplatin (shift in death) (%)":-3.1,"Call":"inactive"}
{"target gene":"RFC4","reagent no.":1,"two-siRNA summed score (-2 to +2)":0,"mean protection from cisplatin (shift in death) (%)":7.3,"Call":"inactive"}
{"target gene":"COL15A1","reagent no.":1,"two-siRNA summed score (-2 to +2)":0,"mean protection from cisplatin (shift in death) (%)":7.2,"Call":"inactive"}
{"target gene":"OR10G3","reagent no.":1,"two-siRNA summed score (-2 to +2)":0,"mean protection from cisplatin (shift in death) (%)":9.2,"Call":"inactive"}
{"target gene":"PITX2","reagent no.":1,"two-siRNA summed score (-2 to +2)":1,"mean protection from cisplatin (shift in death) (%)":17.7,"Call":"inactive"}
{"target gene":"LOC401284","reagent no.":1,"two-siRNA summed score (-2 to +2)":0,"mean protection from cisplatin (shift in death) (%)":6.1,"Call":"inactive"}
{"target gene":"PMS1","reagent no.":1,"two-siRNA summed score (-2 to +2)":0,"mean protection from cisplatin (shift in death) (%)":-18.5,"Call":"inactive"}
{"target gene":"ATP6V1H","reagent no.":1,"two-siRNA summed score (-2 to +2)":0,"mean protection from cisplatin (shift in death) (%)":-7.2,"Call":"inactive"}
{"target gene":"LINC00602","reagent no.":1,"two-siRNA summed score (-2 to +2)":0,"mean protection from cisplatin (shift in death) (%)":14.3,"Call":"inactive"}
{"target gene":"KXD1","reagent no.":1,"two-siRNA summed score (-2 to +2)":0,"mean protection from cisplatin (shift in death) (%)":7.2,"Call":"inactive"}
{"target gene":"LOC439962","reagent no.":1,"two-siRNA summed score (-2 to +2)":1,"mean protection from cisplatin (shift in death) (%)":16.1,"Call":"inactive"}
{"target gene":"ABHD1","reagent no.":1,"two-siRNA summed score (-2 to +2)":0,"mean protection from cisplatin (shift in death) (%)":-5,"Call":"inactive"}
